# In PubChem BioAssay AID2685 (National Center for Advancing Translational Sciences (NCATS), 2010):
# This is one part of the list. Shown are side measurements of this screen, not its main read-out; they come without a call. The list favours compounds with an active or inconclusive main result. Words in brackets tell the shape of the fitted curve; partial curves, single points and poor fits give uncertain potencies.
# Assay: qHTS Assay for Lipid Storage Modulators in Drosophila S3 Cells;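 as to cell number change: cells counted by Cell Tracker Red CMTPX staining in the red channel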
# Settings: BODIPY lipid droplet fluorescence, 18-24 h; for cell number change: measured here: cell count max response, cells fed with added oleic acid
# In short: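 Drosophila S3 cells got compounds at several concentrations plus oleic acid (400 uM solution). Laser-scanning cytometry with 488 nm excitation read lipid droplets at 500-530 nm and cells at 575-640 nm. Percent activity was relative to 20 uM Triacsin C.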
# [1] = measured here: cell number channel AC50, cells fed with added oleic acid
# [2] = measured here: lipid fluorescence (Fed channel) AC50, cells fed with added oleic acid
SMILES,cell number change [%],AC50 [1],AC50 [2]
O=C(NCC1CCCN(C(=O)c2cc(Cl)ccc2F)C1)c1ccc(F)cc1 (centres undefined),57.3,"18.4 µM [rising, single point]",–
Cc1[nH]c2ccccc2c1C(=O)C(=O)Nc1ccc2c(c1)OCCO2,-18.5,–,–
Cc1c(C(=O)N2CCN(C3CCS(=O)(=O)C3)CC2)oc2ccc(Cl)cc12 (centres undefined),-25,–,"6.51 µM [falling, single point]"
CCOC(=O)N1CCC(N2C(=O)c3ccccc3C2Nc2ccccc2)CC1 (centres undefined),14.1,"0.58 µM [rising, full curve, poor fit]",–
O=C(CN(Cc1ccc(Cl)cc1)C(=O)CN1C(=O)COc2ccccc21)NC1CCCC1,76.1,"25.9 µM [rising, single point]","0.58 µM [rising, single point]"
Cc1cc2c(c(=O)n1Cc1cccnc1)C(Cc1ccccc1)C(C#N)=C(N)O2 (centres undefined),–,–,"0.651 µM [rising, full curve, poor fit]"
CCCCCn1c(Sc2nc3ccccc3s2)nc2c1c(=O)[nH]c(=O)n2C,-21.2,"2.91 µM [rising, single point]","3.26 µM [rising, partial curve]"
CCc1ccccc1NS(=O)(=O)c1ccc(OC)c2ncccc12,10.1,–,"29.1 µM [falling, single point]"
COc1cccc(NC(=O)C(C)NS(=O)(=O)c2ccc(Br)cc2)c1 (centres undefined),-13.1,–,"0.00411 µM [rising, full curve, poor fit]"
CCCc1nn2c(=O)cc(COc3cccc(NC(=O)c4ccco4)c3)nc2s1,-11.9,"4.11 µM [falling, single point]",–
O=C(Nc1ccc(F)cc1)Nc1nnc(Cc2ccccc2)s1,3.28,–,"0.206 µM [rising, partial curve]"
Cc1cc(=O)n2nc(N3CCCC3C(=O)NCCCN3CC(C)CC(C)C3)sc2n1 (centres undefined),–,–,"0.103 µM [falling, full curve]"
CC(=O)c1cccc(NC(=O)C2(c3ccccc3)CC2(Cl)Cl)c1 (centres undefined),-34.1,–,–
CCOC(=O)c1cnc2c(Cl)cccc2c1NCCN1CCOCC1,3.5,–,–
Cc1ccc(NC(=O)c2cccc(NC(=O)/C=C/c3ccco3)c2)cc1C,-20.4,–,"8.2 µM [falling, partial curve]"
O=S(=O)(c1ccc(Cl)cc1)N1CCN(Cc2cccnc2)CC1,–,–,"35.5 µM [rising, single point]"
Cc1ccc(N2C(=O)N(CC(=O)Nc3ccccc3C(F)(F)F)C(=O)C2C)cc1 (centres undefined),-43.5,"32.6 µM [falling, single point]","2.31 µM [rising, partial curve]"
COc1cccc(C(=O)Nc2cccc(NC(=O)c3ccccc3Cl)c2)c1,-34.1,"18.4 µM [falling, partial curve, poor fit]","6.51 µM [falling, single point]"
CCOc1ccc(OCCN(C)Cc2ccccc2)cc1,-1.14,–,"29.1 µM [falling, single point]"
Cc1ccccc1-c1nc2ccccc2o1,37.4,"2.91 µM [rising, full curve]","9.2 µM [rising, partial curve]"
CCNC(=O)CN1C(=O)NC2(CCCCCC2)C1=O,12.5,–,"6.51 µM [falling, single point]"
O=C(NCc1ccccc1Cl)c1ccccc1CCc1ccccc1,36.9,"8.2 µM [rising, partial curve]","18.4 µM [rising, single point]"
CSc1nc2ncc3c(n2n1)CC(C)(C)CC3=O,-40.8,"32.6 µM [falling, single point]",–
CC(Nc1ncnc2ccccc12)c1ccccc1 (centres undefined),-36.8,"3.26 µM [falling, full curve, poor fit]","1.64 µM [falling, partial curve]"
COCCN=c1scc(C)n1/N=C/C1CC2C=CC1C2 (centres undefined),70.5,"0.206 µM [rising, full curve, poor fit]","0.082 µM [rising, full curve, poor fit]"
Cc1ccc(S(=O)(=O)NC(CC(=O)N2CCOCC2)c2ccco2)cc1 (centres undefined),-66.4,"2.91 µM [falling, full curve]","2.59 µM [falling, full curve]"
COc1cccc2cc(C(=O)CS(=O)(=O)c3ccc(C(C)(C)C)cc3)c(=O)oc12,-17.7,–,"11.6 µM [rising, single point]"
COC(=O)CSc1nnc(SCc2ccccc2)s1,-0.523,–,–
CCOP(=O)(OCC)C(NC(=O)Nc1ccccc1)C(N)=O (centres undefined),-36.1,–,–

# A draw from above in order of molecular weight, descending.
SMILES,cell number change [%],AC50 [1],AC50 [2]
Cc1cc(=O)n2nc(N3CCCC3C(=O)NCCCN3CC(C)CC(C)C3)sc2n1 (centres undefined),–,–,"0.103 µM [falling, full curve]"
CCCc1nn2c(=O)cc(COc3cccc(NC(=O)c4ccco4)c3)nc2s1,-11.9,"4.11 µM [falling, single point]",–
CCCCCn1c(Sc2nc3ccccc3s2)nc2c1c(=O)[nH]c(=O)n2C,-21.2,"2.91 µM [rising, single point]","3.26 µM [rising, partial curve]"
Cc1c(C(=O)N2CCN(C3CCS(=O)(=O)C3)CC2)oc2ccc(Cl)cc12 (centres undefined),-25,–,"6.51 µM [falling, single point]"
O=C(NCC1CCCN(C(=O)c2cc(Cl)ccc2F)C1)c1ccc(F)cc1 (centres undefined),57.3,"18.4 µM [rising, single point]",–
CCOC(=O)N1CCC(N2C(=O)c3ccccc3C2Nc2ccccc2)CC1 (centres undefined),14.1,"0.58 µM [rising, full curve, poor fit]",–
O=C(NCc1ccccc1Cl)c1ccccc1CCc1ccccc1,36.9,"8.2 µM [rising, partial curve]","18.4 µM [rising, single point]"
Cc1[nH]c2ccccc2c1C(=O)C(=O)Nc1ccc2c(c1)OCCO2,-18.5,–,–
CSc1nc2ncc3c(n2n1)CC(C)(C)CC3=O,-40.8,"32.6 µM [falling, single point]",–
